Assay results reported in patent US20230174473A1, “ANTIMICROBIAL AND ANTIVIRAL SULFUR CONTAINING GLYCEROL MONOESTER DERIVATIVES” (priority 2020, published 2023).

Tested on: Lipase (glycerol ester hydrolase)
Test: Lipase (glycerol ester hydrolase) assay, esterase resistance
Format: biochemical, Staphylococcus aureus
Settings: 500 ug/ml compound in agarose slide, 24 hours at 37° C.
Description: Protocol for Lipase (glycerol ester hydrolase) assay: • 1. Two separate samples of lipase at 25 ug/ml were prepared. • 2. Microscope slides were made up with 500 ug/ml of GML, SGML, or S2ML compounds. • These slides contained 0.85% agarose (Difco) heat solubilized into PBS (0.005 M NaPO4 pH 7.2; 0.15MNaC1). • 3. The mixtures contained the compounds above their solubility limits, so they were vortexed, and 4.5 ml of the cloudy mixtures was spread onto microscope slides. • 4. The slides remained at room temperature for 1 hour to allow the agarose to solidify. • 5. The, 4 mm wells were punched into the agarose, twice per slide. • 6. 20 ul of the Lipase was added to each well. • 7. The slides were incubated for 24 hours at 37° C. • 8. The diameter squared was determined for each. This allows determination of hydrolysis of compound. • GML: 15 mm; 15 mm diameters (diameters squared=225 mm) • SGML: 12 mm; 13 mm diameters (diameters squared=144 mm and 169 mm for an average of 156.5 mm) • S2GML: 0 mm; 0 mm diameters (diameters squared=0) • 10. Diameter squared is used to the determination would be a straight line with a standard curve. • Set GML at 100% • 11. SGML is 70% as much as GML • 12. S2GML is 0% of GML

CCCCCCCCCCCC(=O)OCC(O)CO (centres unmarked) [GML, glycerol monolaureate]
diameters (hydrolysis zone) (20 ul lipase 25 ug/ml per well, two lipase samples): 15 mm
diameters squared (lipase 25 ug/ml): 225 mm
